{"source": "paper PMC9630261", "system": "serum albumin (500 uM in PBS, gel)", "experiment": "EMSA (3% agarose)", "conditions": "500 uM albumin in PBS, binding via C16 fatty acid, legend names D0-C16; phosphorothioate linkages; C16 (palmitic acid); Albumin titration: fluorescein quenching, buffer not stated separately (binding curves: 50 mM Na2HPO4, 100 mM NaCl, pH 7.00, 20 C); gel: 500 uM albumin in PBS; commercial protein; label: fluorescein (FAM)", "note": "The exact form of at least one protein or probe is not confirmed. At least one verdict rests on a figure or table, not on a statement of the authors.", "data": [{"sequence": "CGCGCGCGCGCG (double strand) [D0-PS-FAM-C16]", "values": [{"measurement": "binding result", "result": "binds"}]}]}
